Article PMC6260752
No constants are given. Whether binding was seen depends on the method and setting. Binding seen in cells or lysates may run through a third protein. Some entries that bind do so weakly or less than the wild type.

Sequences of proteins named here, by UniProt entry; tags and fusion partners are left off. Residues count along the entry.
UniProt P17181, residues 28-557: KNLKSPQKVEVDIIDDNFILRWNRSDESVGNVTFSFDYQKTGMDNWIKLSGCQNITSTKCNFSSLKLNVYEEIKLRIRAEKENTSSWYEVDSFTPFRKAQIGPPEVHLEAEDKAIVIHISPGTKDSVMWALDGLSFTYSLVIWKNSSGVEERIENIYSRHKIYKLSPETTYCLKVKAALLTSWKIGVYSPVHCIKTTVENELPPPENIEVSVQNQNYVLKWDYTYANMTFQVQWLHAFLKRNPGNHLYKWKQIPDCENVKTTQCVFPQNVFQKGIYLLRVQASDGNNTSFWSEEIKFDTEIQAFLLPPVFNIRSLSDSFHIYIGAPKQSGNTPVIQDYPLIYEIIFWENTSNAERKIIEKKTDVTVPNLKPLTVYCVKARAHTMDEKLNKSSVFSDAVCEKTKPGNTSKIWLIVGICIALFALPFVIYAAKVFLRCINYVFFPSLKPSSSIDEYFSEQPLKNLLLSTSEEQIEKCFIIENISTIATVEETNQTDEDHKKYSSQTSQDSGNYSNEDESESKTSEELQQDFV
UniProt P41279: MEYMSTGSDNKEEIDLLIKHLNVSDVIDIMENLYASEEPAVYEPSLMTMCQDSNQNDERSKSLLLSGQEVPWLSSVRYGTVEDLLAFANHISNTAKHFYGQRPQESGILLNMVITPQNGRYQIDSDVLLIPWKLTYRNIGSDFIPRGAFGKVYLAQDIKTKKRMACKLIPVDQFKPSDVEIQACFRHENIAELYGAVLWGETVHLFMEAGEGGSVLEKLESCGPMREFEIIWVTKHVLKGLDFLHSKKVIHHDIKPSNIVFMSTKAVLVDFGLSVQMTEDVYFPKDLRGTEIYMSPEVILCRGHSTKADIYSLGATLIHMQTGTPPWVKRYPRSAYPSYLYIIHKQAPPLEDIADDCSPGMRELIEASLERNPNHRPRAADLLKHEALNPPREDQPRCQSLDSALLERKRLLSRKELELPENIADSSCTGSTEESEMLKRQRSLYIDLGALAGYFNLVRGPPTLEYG

Legend:
[1] = target: T1, Type I interferon receptor 2 (IFNAR2) (human (endogenous in T24)) (UniProt P48551); assay: co-IP; T24 cell extracts precleared with protein A/G agarose, incubated with IFNAR2 or IFNAR1 antibodies overnight at 4 °C, then protein A/G agarose 2 h at 4 °C; western blot; cells treated with IFN-α (1 × 10^4 U/mL) for specific time points, or with TPL2i (2 μM), PD98059 (40 μM) or roflumilast (1 μM)
T1 sequence: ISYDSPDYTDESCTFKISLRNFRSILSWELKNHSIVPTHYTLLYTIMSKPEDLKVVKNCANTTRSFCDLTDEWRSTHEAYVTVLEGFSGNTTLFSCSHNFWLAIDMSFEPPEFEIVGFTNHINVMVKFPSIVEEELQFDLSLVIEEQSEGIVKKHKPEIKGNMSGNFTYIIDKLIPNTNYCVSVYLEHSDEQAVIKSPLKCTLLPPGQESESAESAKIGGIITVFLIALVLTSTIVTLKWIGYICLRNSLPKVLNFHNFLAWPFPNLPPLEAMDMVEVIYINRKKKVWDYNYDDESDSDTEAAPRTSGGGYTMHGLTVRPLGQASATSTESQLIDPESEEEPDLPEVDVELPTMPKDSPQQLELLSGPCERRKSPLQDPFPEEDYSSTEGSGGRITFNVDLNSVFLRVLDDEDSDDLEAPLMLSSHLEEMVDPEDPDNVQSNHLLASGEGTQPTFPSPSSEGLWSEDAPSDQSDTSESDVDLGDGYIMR

[2] = target: Type I interferon receptor 1 (IFNAR1) (human (endogenous in T24)) (UniProt P17181); assay: as above

binding [1] | binding [2] | Substance
binds |  | phosphorylated TPL2 (pTPL2, Ser400) (from UniProt P41279 1-467) (enzyme)
binds | no binding | tumor progression locus 2 (TPL2) (from UniProt P41279 1-467) (enzyme)
